Results are given in words; binding and its absence hold for the method and conditions named. For some assays here: Binding seen in cells or lysates may run through a third protein. Some entries that bind do so weakly or less than the wild type.
Key:
[1] = target: T1, FITC-RLTpSTRL (RPS6KA2 peptide, phosphorylated at p-3) (human); assay: MST; FITC-labeled peptide fixed at 25-50 nM, protein (Scribble PDZ1 or DLG1 PDZ2) in a 1:1 dilution series; 50 mM Tris-HCl pH 7.4, 0.1% Tween-20; thermophoresis and T-Jump signal; n = 3; both purified
T1 sequence (peptide, phosphoserine at p-3 (RLT(pS)TRL); FITC on the N-terminus): RLTSTRL

Chains of the proteins cited; added tags and fusions are not shown. Lines headed by an entry give the natural chain unless they say otherwise; changes in a name come on top. Residues count along the entry.
UniProt Q15349: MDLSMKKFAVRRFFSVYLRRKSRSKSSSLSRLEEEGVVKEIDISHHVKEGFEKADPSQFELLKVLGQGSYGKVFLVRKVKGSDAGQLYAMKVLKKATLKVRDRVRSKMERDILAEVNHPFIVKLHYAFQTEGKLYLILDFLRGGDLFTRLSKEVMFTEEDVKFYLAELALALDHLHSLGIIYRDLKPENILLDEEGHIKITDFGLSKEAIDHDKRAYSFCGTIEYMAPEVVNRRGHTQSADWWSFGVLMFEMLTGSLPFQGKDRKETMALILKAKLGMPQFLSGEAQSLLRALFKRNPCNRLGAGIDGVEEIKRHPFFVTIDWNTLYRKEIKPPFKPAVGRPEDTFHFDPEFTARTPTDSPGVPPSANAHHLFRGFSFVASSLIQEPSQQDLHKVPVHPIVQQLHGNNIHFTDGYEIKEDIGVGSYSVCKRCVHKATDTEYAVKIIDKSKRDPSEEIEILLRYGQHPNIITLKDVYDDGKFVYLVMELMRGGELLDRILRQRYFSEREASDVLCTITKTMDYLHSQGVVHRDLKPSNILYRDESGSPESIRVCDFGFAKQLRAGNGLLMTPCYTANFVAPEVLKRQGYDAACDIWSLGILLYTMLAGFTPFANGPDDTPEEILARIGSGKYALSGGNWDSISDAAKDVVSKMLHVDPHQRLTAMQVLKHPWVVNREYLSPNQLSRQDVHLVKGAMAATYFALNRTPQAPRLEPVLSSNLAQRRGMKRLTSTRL
UniProt Q12959, residues 311-407: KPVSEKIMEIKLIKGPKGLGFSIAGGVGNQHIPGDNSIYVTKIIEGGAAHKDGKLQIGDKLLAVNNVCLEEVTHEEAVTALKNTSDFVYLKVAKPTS
UniProt Q14160: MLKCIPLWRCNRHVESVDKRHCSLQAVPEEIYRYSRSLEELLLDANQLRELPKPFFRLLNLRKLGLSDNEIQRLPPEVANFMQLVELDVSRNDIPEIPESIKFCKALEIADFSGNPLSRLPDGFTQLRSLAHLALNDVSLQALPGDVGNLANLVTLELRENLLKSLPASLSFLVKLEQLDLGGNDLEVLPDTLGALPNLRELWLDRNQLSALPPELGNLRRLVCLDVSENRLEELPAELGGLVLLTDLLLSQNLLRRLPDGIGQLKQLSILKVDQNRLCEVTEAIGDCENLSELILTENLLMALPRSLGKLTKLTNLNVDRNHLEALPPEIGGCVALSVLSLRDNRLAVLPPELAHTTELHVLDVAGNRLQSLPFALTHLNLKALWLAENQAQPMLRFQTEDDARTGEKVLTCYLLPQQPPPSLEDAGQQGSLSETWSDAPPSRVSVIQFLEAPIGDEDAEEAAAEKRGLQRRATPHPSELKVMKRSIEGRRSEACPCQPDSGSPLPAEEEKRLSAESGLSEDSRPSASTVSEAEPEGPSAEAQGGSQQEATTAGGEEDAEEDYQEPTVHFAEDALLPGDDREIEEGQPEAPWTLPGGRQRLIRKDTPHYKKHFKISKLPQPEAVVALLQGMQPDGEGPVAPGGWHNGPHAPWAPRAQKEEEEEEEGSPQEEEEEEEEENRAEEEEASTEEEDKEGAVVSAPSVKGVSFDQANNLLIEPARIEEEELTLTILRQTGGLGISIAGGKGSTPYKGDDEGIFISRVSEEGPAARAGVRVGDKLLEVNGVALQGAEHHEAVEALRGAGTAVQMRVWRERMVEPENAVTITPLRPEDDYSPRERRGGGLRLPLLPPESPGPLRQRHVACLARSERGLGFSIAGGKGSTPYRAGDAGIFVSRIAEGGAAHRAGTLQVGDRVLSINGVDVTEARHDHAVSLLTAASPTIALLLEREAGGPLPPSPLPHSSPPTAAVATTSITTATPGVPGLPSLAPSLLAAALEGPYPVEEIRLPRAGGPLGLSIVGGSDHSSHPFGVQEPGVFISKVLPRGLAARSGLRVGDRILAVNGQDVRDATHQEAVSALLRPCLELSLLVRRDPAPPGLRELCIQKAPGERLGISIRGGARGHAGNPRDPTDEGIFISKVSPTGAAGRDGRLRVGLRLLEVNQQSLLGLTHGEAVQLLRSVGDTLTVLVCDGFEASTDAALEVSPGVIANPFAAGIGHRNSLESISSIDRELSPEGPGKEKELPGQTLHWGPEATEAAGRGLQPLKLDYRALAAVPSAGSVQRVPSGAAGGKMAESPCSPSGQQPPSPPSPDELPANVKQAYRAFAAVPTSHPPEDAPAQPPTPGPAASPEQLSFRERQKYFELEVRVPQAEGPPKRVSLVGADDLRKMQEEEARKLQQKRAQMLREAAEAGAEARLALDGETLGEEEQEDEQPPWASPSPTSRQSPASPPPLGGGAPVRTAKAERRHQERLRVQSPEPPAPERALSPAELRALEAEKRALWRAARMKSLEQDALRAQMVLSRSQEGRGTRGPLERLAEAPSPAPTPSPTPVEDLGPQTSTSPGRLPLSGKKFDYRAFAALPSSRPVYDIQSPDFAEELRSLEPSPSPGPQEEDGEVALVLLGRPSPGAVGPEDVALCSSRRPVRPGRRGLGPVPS

[2] = target: Flag-tagged full-length RPS6KA2 S730E (human) (UniProt Q15349); assay: co-IP; HEK293 co-transfected with GFP-Scribble and Flag-RPS6KA2 constructs; lysate precipitated with anti-Flag M2 magnetic beads overnight at 4°C; anti-Flag and anti-GFP blots

binding [1] | binding [2] | Substance
binds | – | DLG1 PDZ2 (His-tagged, aa 311-407) (from UniProt Q12959 311-407) (domain or fragment)
– | binds | GFP-tagged full-length human Scribble (from UniProt Q14160 1-1655)
